# Test results as given in paper doi:10.1101/2024.10.26.620377 (bioRxiv, 2024).
# The chains behind the UniProt entries cited, without tags or fusion partners. Where a name states a change or a piece, a line headed by the entry shows the natural chain unless it says otherwise. A line that says so, or that is headed by a name, gives the form on record, which may keep a tag or linker. Residues count along the entry.
# UniProt Q9Y2T5: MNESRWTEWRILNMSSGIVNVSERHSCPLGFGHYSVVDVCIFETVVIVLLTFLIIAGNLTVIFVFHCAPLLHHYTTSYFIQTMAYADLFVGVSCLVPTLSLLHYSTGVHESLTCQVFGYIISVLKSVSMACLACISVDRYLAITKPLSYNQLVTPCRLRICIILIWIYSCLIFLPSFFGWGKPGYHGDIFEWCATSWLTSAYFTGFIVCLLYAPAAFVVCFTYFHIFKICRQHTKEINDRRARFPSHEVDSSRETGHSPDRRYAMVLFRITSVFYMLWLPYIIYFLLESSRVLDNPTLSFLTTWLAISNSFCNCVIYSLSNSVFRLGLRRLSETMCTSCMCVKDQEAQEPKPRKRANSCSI
# GPR52 ICL2-D mutant, receptor-RLuc8 (Q9Y2T5, form named): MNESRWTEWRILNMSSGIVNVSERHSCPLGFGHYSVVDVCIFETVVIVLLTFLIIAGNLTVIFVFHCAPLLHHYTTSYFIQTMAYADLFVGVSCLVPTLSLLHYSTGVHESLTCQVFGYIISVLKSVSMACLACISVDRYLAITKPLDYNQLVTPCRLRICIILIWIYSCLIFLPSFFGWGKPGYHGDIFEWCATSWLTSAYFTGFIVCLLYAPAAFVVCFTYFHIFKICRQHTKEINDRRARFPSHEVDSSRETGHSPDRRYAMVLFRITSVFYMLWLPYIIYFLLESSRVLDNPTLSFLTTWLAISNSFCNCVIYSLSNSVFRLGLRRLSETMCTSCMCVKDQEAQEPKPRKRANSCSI
# GPR52 ICL2-A mutant, receptor-RLuc8 (Q9Y2T5, form named): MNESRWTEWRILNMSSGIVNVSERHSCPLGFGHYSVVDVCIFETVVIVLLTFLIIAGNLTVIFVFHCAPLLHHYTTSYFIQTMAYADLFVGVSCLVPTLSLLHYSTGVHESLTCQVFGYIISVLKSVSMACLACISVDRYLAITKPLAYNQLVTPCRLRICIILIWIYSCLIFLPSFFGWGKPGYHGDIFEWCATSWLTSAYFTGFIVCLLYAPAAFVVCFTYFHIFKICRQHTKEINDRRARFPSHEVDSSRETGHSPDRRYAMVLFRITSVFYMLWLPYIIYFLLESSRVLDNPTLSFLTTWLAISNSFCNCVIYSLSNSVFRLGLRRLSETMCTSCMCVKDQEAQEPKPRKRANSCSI
# UniProt P43220, residues 24-463: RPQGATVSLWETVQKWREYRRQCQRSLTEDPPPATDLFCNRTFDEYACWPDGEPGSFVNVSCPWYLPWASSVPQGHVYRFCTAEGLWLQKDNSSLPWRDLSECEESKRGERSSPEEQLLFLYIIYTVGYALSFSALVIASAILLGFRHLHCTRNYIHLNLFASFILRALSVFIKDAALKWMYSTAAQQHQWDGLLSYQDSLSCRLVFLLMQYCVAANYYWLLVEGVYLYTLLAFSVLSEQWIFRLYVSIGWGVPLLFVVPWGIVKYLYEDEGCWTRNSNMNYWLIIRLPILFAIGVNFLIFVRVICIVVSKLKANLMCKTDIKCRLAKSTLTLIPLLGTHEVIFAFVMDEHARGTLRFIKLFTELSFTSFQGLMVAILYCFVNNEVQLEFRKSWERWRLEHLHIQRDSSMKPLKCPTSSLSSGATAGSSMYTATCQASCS
# Results are given in words; binding and its absence hold for the method and conditions named. Binding seen in cells or lysates may run through a third protein. Some entries that bind do so weakly or less than the wild type.
# What was measured:
# Assay in all cases: FRET or BRET
# [1] = target: GPR52 S332A mutant, receptor-RLuc8 (human) (UniProt Q9Y2T5)
# [2] = target: GLP-1R, receptor-RLuc8 BRET biosensor (UniProt P43220)
# [3] = target: GPR52 ICL2-D mutant, receptor-RLuc8 (human) (UniProt Q9Y2T5)
# [4] = target: GPR52 (wild-type), receptor-RLuc8 BRET biosensor (human) (UniProt Q9Y2T5)
# [5] = target: GPR52 ICL2-A mutant, receptor-RLuc8 (human) (UniProt Q9Y2T5)
binding [1],binding [2],binding [3],binding [4],binding [5],Molecule
binds,binds,,,,β-arrestin2-GFP2 (from UniProt P32121 1-409)
,binds,,,,β-arrestin1-GFP2 (from UniProt P49407 1-418)
binds weakly,,binds weakly,binds weakly,binds weakly,β-arrestin1-GFP2 (natural protein) MGDKGTRVFKKASPNGKLTVYLGKRDFVDHIDLVDPVDGVVLVDPEYLKERRVYVTLTCAFRYGREDLDVLGLTFRKDLFVANVQSFPPAPEDKKPLTRLQERLIKKLGEHAYPFTFEIPPNLPCSVTLQPGPEDTGKACGVDYEVKAFCAENLEEKIHKRNSVRLVIRKVQYAPERPGPQPTAETTRQFLMSDKPLHLEASLDKEIYYHGEPISVNVHVTNNTNKTVKKIKISVRQYADICLFNTAQYKCPVAMEEADDTVAPSSTFCKVYTLTPFLANNREKRGLALDGKLKHEDTNLASSTLLREGANREILGIIVSYKVKVKLVVSRGGLLGDLASSDVAVELPFTLMHPKPKEEPPHREVPENETPVDTNLIELDTNDDDIVFEDFARQRLKGMKDDKEEEEDGTGSPQLNNR
